Experimental data as given in PubChem BioAssay AID493014 (National Center for Advancing Translational Sciences (NCATS), 2011).
Out of some 340,000 compounds screened, about 170 (0.05%) were called active. The inconclusive results got no clear call from the source; some entries with a clear call stand among them for comparison. The call rests on the fitted dose curve; in most records, active means well fitted inhibition curve with a large enough effect in the signal ratio, with a control signal flat (not every such curve was filed as active); inconclusive means small, poorly fitted or top-dose-only effect, or effect the other way, or a change in a side signal; inactive means flat fitted curve, though single readings scatter; the % refers to the signal ratio. A potency beside an inconclusive call is a rough fit, not a confirmed value.

Test: qHTS Assay to Find Inhibitors of Chronic Active B-Cell Receptor Signaling;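 on activity change, negative = inhibition: plate controls were basal doxycycline-induced cells for no effect and cells given 10 µM MG132 for full effect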
Conditions: ABC-DLBCL IkBa-CBG/CBR reporter, luminescence ratio (green luciferase fused to IkBa over red control in TMD8 lymphoma cells), 4 h; activity change, negative = inhibition: at 46.1 µM (top of the series)
In short: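 Doxycycline induced both beetle luciferases in TMD8 lymphoma cells; IKK-driven degradation limits the IkappaBalpha-fused green signal, while red luminescence normalises for cell number and nonspecific effects. Compounds tested up to 46 uM, 4 hrs.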
Potency means the concentration at half of the fitted maximal effect.

SMILES | Potency | activity change, negative = inhibition
CCOc1ccc(CNC(=S)N/N=C/c2ccncc2)cc1 | inconclusive: 29.1 µM [falling, single point] | 
Cc1ccc[n+](CC2OCc3ccccc3CO2)c1 |  | inconclusive: 13.1%
N#Cc1nc(-c2ccc(OCc3ccc(Cl)cc3)cc2)oc1NCc1cccnc1 |  | inconclusive: 5.79%
CCOc1ccc(NC(=S)Nc2cc(-c3ccccc3)[nH]n2)cc1 |  | inconclusive: 23.3%
C/C(=N/NC(=O)c1ccoc1C)C12CC3CC(CC(C3)C1)C2 | inconclusive: 3.66 µM [falling, partial curve, poor fit] | 
CCOc1cc2nc(-c3ccc(OC)c(OC)c3)nc(N3CCOCC3)c2cc1OC | inconclusive: 12.6 µM [falling, partial curve] | 
CCC(=O)N1CCc2cc(OC)c(OC)cc2C1COc1ccc(OC)cc1 (stereo not drawn) | inconclusive: 7.08 µM [falling, partial curve, poor fit] | 
COc1cccc(C(=O)Nc2nc(-c3ccncc3)cs2)c1 | inconclusive: 2 µM [falling, partial curve, poor fit] | 
Cc1cc(C)c2c(c1)c(C)cc1nnc(SCC(=O)c3cccs3)n12 |  | inconclusive: -7.71%
Cc1cccc(NC(=O)CN(CC2CCCO2)C(=O)c2cc3ccccc3o2)c1C (stereo not drawn) | inconclusive: 29.1 µM [falling, single point] | 
N#CC1=C(N)Oc2cc(O)c(C=Nc3ccccc3)cc2C1c1ccccc1 (stereo not drawn) | inconclusive: 18.4 µM [falling, partial curve] | 
N#Cc1ccc(COC(=O)C2CCC(=O)N2)cc1 (stereo not drawn) |  | inconclusive: 10.9%
O=S(=O)(NCCc1csc2nc(-c3ccccc3)nn12)c1cccs1 | inconclusive: 1.26 µM [rising, full curve, poor fit] | 
Cc1ccc(NC(=O)c2ccc(OC(=O)c3cc4ccccc4o3)cc2)cc1 | inconclusive: 1.64 µM [falling, full curve, poor fit] | 
COc1ccc(NC(=S)N(C)CC2COc3ccccc3O2)cc1 (stereo not drawn) |  | inconclusive: -0.215%
CCOc1ccc(C2C(C(=O)Nc3ccccc3)=C(C)Nc3nc(SCc4cccc(OC)c4)nn32)cc1 (stereo not drawn) | inconclusive: 0.447 µM [falling, full curve, poor fit] | 
Cc1ccc(C(=O)NCCN2C3=NC[C@H](Cc4ccc(O)cc4)N3C[C@H]2Cc2ccc(O)cc2)cc1Br |  | inactive: 3.59%
CCCn1c(N2CCN(C(=O)NCc3ccccc3)CC2)nc2ccccc21 |  | inconclusive: 6.74%
O=C(NCc1ccc2c(c1)OCO2)NC1CCCCC1 |  | inconclusive: 9.22%
CCCc1cc(=O)oc2cc(C)cc(O)c12 |  | inconclusive: -21.2%
CC(=O)Nc1sc2c(c1C(c1ccccc1Cl)N1CCN(CCO)CC1)CCCC2 (stereo not drawn) | inconclusive: 8.91 µM [falling, partial curve, poor fit] | 
COc1cc(CNC23CC4CC(CC(C4)C2)C3)ccc1OCc1ccccc1 |  | inactive: -2.5%
CC1CCN(CC2CCN(C(=O)NCc3ccc(F)cc3)CC2)CC1 |  | inconclusive: -4.77%
O=C(O)c1ccc(Cn2cnc3cccnc32)cc1 |  | inconclusive: 7.18%

Looked up by structure from above (three):
SMILES | Potency | activity change, negative = inhibition
O=C(NCc1ccc2c(c1)OCO2)NC1CCCCC1 |  | inconclusive: 9.22%
CCCn1c(N2CCN(C(=O)NCc3ccccc3)CC2)nc2ccccc21 |  | inconclusive: 6.74%
N#CC1=C(N)Oc2cc(O)c(C=Nc3ccccc3)cc2C1c1ccccc1 (stereo not drawn) | inconclusive: 18.4 µM [falling, partial curve] | 

More results follow:

SMILES | Potency | activity change, negative = inhibition
Cc1cccc(-n2c(CCc3ccccc3)nnc2SCC(=O)c2ccccc2)c1 | inconclusive: 29.1 µM [falling, partial curve, poor fit] | 
Cc1cc(C)nc(NC(=O)c2cc3ccccc3o2)n1 |  | inconclusive: -0.546%
CCOc1ccccc1NC(=S)NCCc1ccc(F)cc1 |  | inactive: -1.97%
S=C(NCc1ccco1)N/N=C/c1ccncc1 | inconclusive: 12.6 µM [falling, partial curve] | 
O=C(Nc1nnc(C2=COCCO2)o1)c1ccc(Br)cc1 | inconclusive: 35.5 µM [falling, single point] | 
O=C(N1CCCCCC1)N1CCN(S(=O)(=O)N2CCCCC2)CC1 |  | inconclusive: 12.5%
COc1cc(/C=C/C(=O)c2ccc3c(c2)OCCO3)cc(OC)c1OC | inconclusive: 4.47 µM [falling, partial curve, poor fit] | 
Cc1cc(/C=C2/C(=O)NN(c3ccccc3)C2=O)c(C)n1-c1cccc(O)c1 |  | inconclusive: 1.54%
COCc1cc(C)nc2sc(C(=O)N3CCCC3)c(N)c12 |  | inconclusive: 1.59%
O=C(NNC(=O)c1ccc(Cl)c(Cl)c1)c1cccnc1 | inconclusive: 22.4 µM [falling, single point] | 
CCCS(=O)(=O)NCCc1cc2cc(C)c(C)cc2[nH]c1=O |  | inconclusive: 17.8%
Cn1cnnc1Sc1cc(N2CCN(S(=O)(=O)c3ccccc3)CC2)ccc1[N+](=O)[O-] |  | inactive: 0.626%
O=C(c1ccc(-c2nc3ccccc3s2)o1)N1CCN(c2ccccc2O)CC1 |  | inconclusive: -16.7%
O=C(CSc1nc(=O)[nH]c2c1CCCC2)Nc1ccc(Cl)c(Cl)c1 |  | inactive: 6.36%
CCOC(=O)CNC(=O)c1sc(NC(=O)c2cccc(F)c2)nc1C | inconclusive: 16.4 µM [falling, partial curve] | 
COc1ccc(C(=O)Nc2ccccc2C(=O)NCCN2CCOCC2)cc1 |  | inconclusive: 5.4%
CC(C)Cn1c2c(c(O)c(C(=O)Nc3ccc(F)cc3)c1=O)CCCC2 |  | inconclusive: 1.96%
CCCC(C(=O)Nc1cccc(S(=O)(=O)N2CCCC2)c1)c1ccccc1 (stereo not drawn) |  | inconclusive: -1.52%
CC(OC(=O)c1cccnc1SCc1cc(=O)n2ccccc2n1)c1ccccn1 (stereo not drawn) | inconclusive: 6.51 µM [falling, single point] | 
CCOc1ccc(CCNC(=O)COC(=O)COc2ccc(Cl)cc2)cc1OCC |  | inconclusive: 1.37%
COc1ccc(N2CC(NC(=O)c3cccs3)CC2=O)cc1 (stereo not drawn) |  | inconclusive: -21%
COc1ccccc1NC(=O)Cc1nnc(SCC(=O)c2ccc(F)cc2)n1C |  | inconclusive: -0.998%
C=CCN(C(=O)CCC(=O)Nc1cc(C)on1)C(C(=O)NC1CCCC1)c1ccc(CC)cc1 (stereo not drawn) |  | inactive: 5.38%
COc1ccc(OC)c(/C=C/C(=O)Nc2ccc3c(c2)CCC3)c1 | inconclusive: 14.6 µM [falling, single point] | 
